The record followed here is article PMC4199516.

No constants are given. Whether binding was seen depends on the method and setting. For some of these results: Binding calls can cover weak binding; strength is not graded here.

Common to all, as to assay: two-hybrid; yeast two-hybrid; proteins fused to either the DNA binding domain (DB) or the activation domain (AD) of GAL4; interactions scored by growth on SC-Leu-Trp-Ade plates; similar results with different combinations of yeast strains and plasmids
One experiment addresses T1, MRT-2/Rad1 (C. elegans) (UniProt G5EC44).
T1 sequence: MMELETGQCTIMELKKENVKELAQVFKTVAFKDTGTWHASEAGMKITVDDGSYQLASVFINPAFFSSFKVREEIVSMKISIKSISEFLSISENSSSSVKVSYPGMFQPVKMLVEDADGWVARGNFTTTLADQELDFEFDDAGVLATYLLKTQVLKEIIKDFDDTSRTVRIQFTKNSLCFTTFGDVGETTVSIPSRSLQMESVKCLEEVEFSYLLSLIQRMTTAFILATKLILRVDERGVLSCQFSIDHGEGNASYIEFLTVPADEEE

For experiment [1], the target named is T2, HPR-9 (Rad9 homolog) (C. elegans) (UniProt Q95Q27).
T2 sequence: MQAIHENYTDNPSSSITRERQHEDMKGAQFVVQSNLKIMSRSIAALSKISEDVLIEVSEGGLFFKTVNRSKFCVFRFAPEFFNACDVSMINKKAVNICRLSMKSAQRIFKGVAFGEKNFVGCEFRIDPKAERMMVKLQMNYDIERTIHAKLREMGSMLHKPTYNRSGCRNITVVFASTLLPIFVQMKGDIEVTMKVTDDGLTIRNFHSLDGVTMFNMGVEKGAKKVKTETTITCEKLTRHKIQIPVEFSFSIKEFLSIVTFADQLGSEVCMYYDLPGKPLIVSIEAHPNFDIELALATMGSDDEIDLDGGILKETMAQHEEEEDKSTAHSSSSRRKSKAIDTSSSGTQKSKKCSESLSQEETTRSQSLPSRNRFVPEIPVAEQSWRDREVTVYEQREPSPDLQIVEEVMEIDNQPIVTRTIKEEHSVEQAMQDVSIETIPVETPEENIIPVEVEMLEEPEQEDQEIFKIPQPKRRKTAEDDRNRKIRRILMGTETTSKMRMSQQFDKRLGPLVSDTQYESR

In experiment [2] the target is T3, CLK-2 (S. cerevisiae Tel2p ortholog) (C. elegans) (UniProt Q95YE9).
T3 sequence: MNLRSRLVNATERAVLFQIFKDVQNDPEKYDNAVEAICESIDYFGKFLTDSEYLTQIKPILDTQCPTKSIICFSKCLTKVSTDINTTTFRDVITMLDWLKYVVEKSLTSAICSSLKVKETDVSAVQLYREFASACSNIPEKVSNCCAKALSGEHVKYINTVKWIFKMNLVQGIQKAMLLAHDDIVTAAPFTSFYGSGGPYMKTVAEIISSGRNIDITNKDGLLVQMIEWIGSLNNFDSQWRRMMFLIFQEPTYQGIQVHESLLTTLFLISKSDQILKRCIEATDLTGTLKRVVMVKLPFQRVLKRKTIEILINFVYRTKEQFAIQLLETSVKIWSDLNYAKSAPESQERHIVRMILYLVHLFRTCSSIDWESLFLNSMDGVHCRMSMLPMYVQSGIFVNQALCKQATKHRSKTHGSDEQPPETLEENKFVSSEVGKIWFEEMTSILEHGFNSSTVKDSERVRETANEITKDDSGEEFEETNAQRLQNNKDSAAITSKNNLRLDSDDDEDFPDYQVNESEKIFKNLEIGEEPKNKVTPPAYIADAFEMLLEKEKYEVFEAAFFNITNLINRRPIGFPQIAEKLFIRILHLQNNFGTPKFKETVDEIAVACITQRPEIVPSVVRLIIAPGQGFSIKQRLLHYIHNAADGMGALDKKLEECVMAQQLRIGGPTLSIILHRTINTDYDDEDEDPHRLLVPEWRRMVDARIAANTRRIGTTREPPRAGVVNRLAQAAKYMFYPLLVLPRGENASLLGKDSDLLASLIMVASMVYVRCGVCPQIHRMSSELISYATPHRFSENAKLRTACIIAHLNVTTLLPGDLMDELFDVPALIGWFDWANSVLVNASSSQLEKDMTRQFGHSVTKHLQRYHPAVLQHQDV

Consider “ZTF-8 with a mutation in the APSES DNA binding domain (SSLCPNA to AAAAAAA) (C. elegans)”, for which the binding result in the experiment with MRT-2/Rad1 (C. elegans) is given as “no binding”. For the substance “ZTF-8, full length (from UniProt Q9GYG1)”, the binding result in experiment [1] is reported as “no binding”; in experiment [2], “no binding”; with MRT-2/Rad1 (C. elegans), “binds”. On to “ZTF-8C (C-terminal truncation, 400-687) (C. elegans) (domain or fragment)”, for which the binding entry with MRT-2/Rad1 (C. elegans) is reported as “no binding”. In the case of “ZTF-8M (middle truncation, 270-598) (C. elegans) (domain or fragment)”, in the experiment with MRT-2/Rad1 (C. elegans), the binding entry is given as “no binding”. For the substance “ZTF-8N (N-terminal truncation, 1-330) (C. elegans) (domain or fragment)”, the binding entry with MRT-2/Rad1 (C. elegans) was “no binding”.
